These results are taken from article PMC10637963.

The chains behind the UniProt entries cited, without tags or fusion partners.
UniProt O54851: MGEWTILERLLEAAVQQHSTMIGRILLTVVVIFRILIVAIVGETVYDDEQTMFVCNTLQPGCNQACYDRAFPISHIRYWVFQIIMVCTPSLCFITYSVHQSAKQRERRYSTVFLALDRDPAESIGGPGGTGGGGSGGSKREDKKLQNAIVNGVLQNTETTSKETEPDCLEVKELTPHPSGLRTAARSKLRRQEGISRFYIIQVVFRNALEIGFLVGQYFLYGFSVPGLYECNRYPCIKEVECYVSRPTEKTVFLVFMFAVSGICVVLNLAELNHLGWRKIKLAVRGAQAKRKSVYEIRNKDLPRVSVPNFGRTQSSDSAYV
UniProt Q9Y6I9: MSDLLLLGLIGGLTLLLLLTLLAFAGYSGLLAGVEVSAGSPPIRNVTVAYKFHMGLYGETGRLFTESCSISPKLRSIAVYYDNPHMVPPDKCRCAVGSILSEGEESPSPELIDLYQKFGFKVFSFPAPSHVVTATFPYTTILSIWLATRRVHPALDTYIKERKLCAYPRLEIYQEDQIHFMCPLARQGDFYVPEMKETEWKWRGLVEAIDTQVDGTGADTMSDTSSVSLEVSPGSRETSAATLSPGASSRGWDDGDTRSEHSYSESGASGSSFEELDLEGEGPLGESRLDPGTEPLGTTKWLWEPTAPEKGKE

These are yes or no findings as the source states them, for the method shown. In cells and extracts the contact can be indirect. Here binding means that the protein was enriched with, or labelled near, the bait; the list need not be complete.

This assay has as its target Cx36-EGFP (connexin 36 with a C-terminal EGFP tag) (UniProt O54851). Briefly: proximity labelling; BioID: HEK293T cotransfected with Cx36-EGFP, Cx36-SNAP and V5-dGBP-TurboID (GFP nanobody directs TurboID to Cx36-EGFP); 50 uM biotin for 3 h; lysis in 1% Triton X-100; streptavidin beads overnight at 4 C, washes incl. 2% SDS; eluates read by mass spectrometry and Western blot.

Take “Cx36-SNAP (connexin 36 with a C-terminal SNAP-tag) (from UniProt O54851 1-321)”: the binding result was “binds”.

On to “testis-expressed protein 264 (Tex264) (from UniProt Q9Y6I9 1-313)”, for which the binding result is “binds”.
